Reference: paper PMC8654301
These are yes or no findings as the source states them, for the method shown. Binding seen in cells or lysates may run through a third protein. Some binding calls cover weakened binding; strength is not graded here.

Target: T1, TREM-2 (endogenous, CD4+ T cells and lung tissue) (human (endogenous in CD4+ T cells and lung tissue)) (UniProt Q9NZC2)
T1 sequence: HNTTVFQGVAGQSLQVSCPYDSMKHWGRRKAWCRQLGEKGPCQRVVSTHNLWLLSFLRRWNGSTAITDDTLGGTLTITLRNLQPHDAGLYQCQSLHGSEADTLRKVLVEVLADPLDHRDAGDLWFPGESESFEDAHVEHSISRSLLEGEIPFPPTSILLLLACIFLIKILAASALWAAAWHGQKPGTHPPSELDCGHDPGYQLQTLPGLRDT
Assay: co-IP

With “SARS-CoV-2 M protein on pseudovirus (VSV-M) (from UniProt P0DTC5 1-222)” the binding was “binds”.
